# Reference: PubChem BioAssay AID1439 (NMMLSC, 2008)
# By UniProt entry, the sequences of proteins in these tests, tags left out.
# UniProt P09471, whole entry, looked up: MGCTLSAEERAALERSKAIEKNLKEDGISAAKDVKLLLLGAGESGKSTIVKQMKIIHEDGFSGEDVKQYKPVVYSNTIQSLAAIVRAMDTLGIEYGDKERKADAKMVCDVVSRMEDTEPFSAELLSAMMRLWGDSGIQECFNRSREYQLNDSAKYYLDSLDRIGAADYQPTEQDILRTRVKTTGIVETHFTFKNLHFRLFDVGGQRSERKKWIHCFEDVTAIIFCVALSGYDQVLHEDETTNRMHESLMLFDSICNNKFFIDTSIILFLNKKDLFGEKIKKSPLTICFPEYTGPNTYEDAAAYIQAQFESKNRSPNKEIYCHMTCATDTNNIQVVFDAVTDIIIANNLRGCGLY
# Out of some 220,000 compounds screened, about 770 (0.35%) were called active. Inconclusive means that the source gave no clear call. Such entries were picked first, then a sample of the others. Rule as the data show it: active = binding response below about 49% or above about 150%; inconclusive = no clear call, values can overlap the other calls; inactive = in between.
# Biological target: Guanine nucleotide-binding protein G(o) subunit alpha (Homo sapiens) (UniProt P09471)
# Assay: RGS7-Galphao binding modulators, primary screen, biochemical, multiplexed bead flow cytometry (AID 1439);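 also: fluorescent Galphao held in activated GDP-AlF4 state binding bead-coupled RGS7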
# Details: at 10 µM, actives lie on both sides
row,SMILES,binding response (% of control)
1,CC1CCN(C(=O)Cn2cnc3c(cnn3C(C)(C)C)c2=O)CC1,inconclusive: 116%
2,O=C(O)Cn1ncn(-c2ccc(OC(F)(F)F)cc2)c1=O,inactive: 96.3%
3,O=C(CN1CCCC1)Nc1ccc(Br)cc1,inconclusive: 101%
4,O=S(=O)(Cc1ccc(Cl)cc1)c1ccccc1-c1nnc(-c2ccc(Cl)cc2)o1,inactive: 95.5%
5,O=S(=O)(CCc1ccncc1)Cc1ccc2c3c(cccc13)CC2,inconclusive: 95.7%
6,Cc1cc(C)[n+]2[nH]c(N)c(N=Nc3ccccc3)c2n1,inconclusive: 80%
7,Nc1ccc2nc(SCc3ccccc3F)sc2c1,inconclusive: 109%
8,O=c1c(-c2n[nH]c(=S)o2)cccn1Cc1ccccc1,inconclusive: 91.5%
9,Cc1ncc(C(=O)O)c(C(=O)O)c1N,inconclusive: 114%
10,O=C(N/N=C/c1ccc(-c2ccccc2)o1)c1ccccc1O,inconclusive: 14.2%
11,O=S(=O)(CCN1CCCCC1)Oc1ccc(Cl)cc1Cl,inconclusive: 70.9%
12,CCOc1ccc(Br)cc1CNc1ccc2c(c1)OCCO2,inconclusive: 123%
13,CC(NC(=O)CCN1N=C(c2ccccc2)CCC1=O)c1ccc2c(c1)OCCO2 (centres undefined),inactive: 79.9%
14,CC(=O)CCC(=O)OCC(=O)c1ccc(C(F)(F)F)cc1,inconclusive: 151%
15,COCCCNC(=S)Nc1cccc2ncccc12,inactive: 94.5%
16,COc1ccc(C(=O)COC(=O)CNC(=O)c2cccc(OC(F)F)c2)cc1,inconclusive: 112%
17,COc1ccc(CC(=O)Nc2nc3ccccc3[nH]2)cc1,inconclusive: 97.9%
18,COc1cc(C=O)ccc1OC(=O)c1ccc(C(C)C)cc1,inconclusive: 116%
19,C=CCc1cccc2cc(C(=O)N3CCN(c4ccccn4)CC3)c(=O)oc12,inactive: 98.5%
20,C=C(C)CSc1nnc(CCCCCNC(=O)OC(C)(C)C)o1,inconclusive: 347%
21,CCOC(=O)Cc1cnc(NC(=O)NC(C(=O)OCC)(c2ccccc2)C(F)(F)F)s1 (centres undefined),inactive: 100%
22,COc1ccc(/C=N/NC(=S)Nc2cc(C(F)(F)F)ccc2Cl)cc1,inconclusive: 145%
23,O=C(O)CCC(=O)N1CCN(c2ncccn2)CC1,inconclusive: 37%
24,CCn1nnc(NC(=O)c2cccnc2Cl)n1,inactive: 98.6%

# 6 consecutive entries out of the list so far, for reference:
row,SMILES,binding response (% of control)
2,O=C(O)Cn1ncn(-c2ccc(OC(F)(F)F)cc2)c1=O,inactive: 96.3%
3,O=C(CN1CCCC1)Nc1ccc(Br)cc1,inconclusive: 101%
4,O=S(=O)(Cc1ccc(Cl)cc1)c1ccccc1-c1nnc(-c2ccc(Cl)cc2)o1,inactive: 95.5%
5,O=S(=O)(CCc1ccncc1)Cc1ccc2c3c(cccc13)CC2,inconclusive: 95.7%
6,Cc1cc(C)[n+]2[nH]c(N)c(N=Nc3ccccc3)c2n1,inconclusive: 80%
7,Nc1ccc2nc(SCc3ccccc3F)sc2c1,inconclusive: 109%

# Carrying on.

row,SMILES,binding response (% of control)
1,COc1ccccc1N1CCN(S(=O)(=O)c2ccc3c4c(cccc24)C(=O)N3C)CC1,active: -3.87%
2,CCN1CCN(c2cc(C)c3cc(NC(=S)N4CCOCC4)ccc3n2)CC1,inconclusive: 98.4%
3,O=C(O)c1cc2nccc(-c3ccc(F)cc3)n2n1,inactive: 104%
4,C/C(=N/NC(=O)c1cccs1)c1cccc(NC(=O)C2CC2)c1,inactive: 97.2%
5,CCCC/C(O)=C1\C(=O)CCCC1=NCCc1c(C)[nH]c2ccccc12,inconclusive: 112%
6,CCCCCCCCCCCCN1C(=O)CSC1c1cccnc1 (centres undefined),inconclusive: 184%
7,CCN(CC)C(=S)Oc1c(Cl)cccc1Cl,inconclusive: 109%
8,COCCCNc1nc(N)c([N+](=O)[O-])c(Nc2cc(OC)ccc2OC)n1,inconclusive: 102%
9,CCCCOCC(O)Cn1c(C)nc2ccccc21 (centres undefined),inactive: 102%
10,O=C(CCCC(=O)N(CC(=O)NC1CCCC1)C1CCCC1)Nc1ccccn1,inactive: 99.2%
11,COc1cc2c(cc1NC(=O)CSc1nnc(Cc3cccs3)n1Cc1ccco1)oc1ccccc12,inactive: 99.4%
12,N#Cc1nc(Cc2ccccc2)oc1N1CCCC1,inconclusive: 108%
13,COc1ccc(CN2CCN(S(=O)(=O)c3ccc(NC(C)=O)cc3)CC2)cc1,inconclusive: 90.5%
14,CC1(C)C[C@@H]2C[C@@](C)(CN2C(=O)c2ccccc2)C1,inconclusive: 91.5%
15,CN(CC(=O)Nc1sc2c(c1C#N)CCCCC2)Cc1nc2ccccc2c(=O)[nH]1,inconclusive: 97.6%
16,Cc1ccc(C2=N/C(=C\N3CCCCC3)C(=O)O2)cc1,active: 169% [activator]
17,CC(=O)Nc1nc(C2CC2)cc(-c2ccccc2)c1C#N,inactive: 98.2%
18,CNc1ccc(S(=O)(=O)NC)cc1[N+](=O)[O-],inconclusive: 105%
19,Cc1c(Cl)ccc2c(C(=O)O)cc(-c3ccccc3)nc12,inconclusive: 122%
20,Cc1cc(O)c(-c2cc(C(=O)NCCc3ccc(S(N)(=O)=O)cc3)[nH]n2)cc1C,inconclusive: 102%
21,Cn1c(=O)c2c(ncn2CCC(=O)N/N=C/c2ccncc2)n(C)c1=O,inconclusive: 90.9%
22,CC1=NN(C(=O)CSCc2ccccc2)C(O)(c2ccc(F)cc2)C1 (centres undefined),inconclusive: 83.3%
23,O=c1oc2ccccc2n1Cc1cccc(Cl)c1,inconclusive: 165%
24,Cn1nc(C(C)(C)C)c(NC(=O)c2cccs2)c1C(C)(C)C,inconclusive: -84.7%

row,SMILES,binding response (% of control)
1,COc1cccc(N2CCN(c3ccc(S(=O)(=O)N4CCCC4)cc3)CC2)c1,inactive: 106%
2,O=C1CCN(S(=O)(=O)c2ccccc2)CCN1CCOCc1ccc(F)cc1,inconclusive: 93.5%
3,O=C(NN1C(=O)C2C3C=CC([C@@H]2C1=O)C31CC1)c1ccccc1 (some centres undefined),inconclusive: 96.5%
4,O=C(CCC(=O)NNC(=O)Nc1ccc(Cl)cc1)NCc1ccccc1,inactive: 109%
5,O=C(COc1ccc2ccc(=O)oc2c1)c1ccccc1,inconclusive: 134%
6,COc1cc2c(=O)n(Cc3ccccc3)c(=O)n(CC(=O)C(C)(C)C)c2cc1OC,inconclusive: 9.97%
7,Cc1ccc(S(=O)(=O)NC(C(=O)N2CCOCCOCCOCC2)c2ccccc2)cc1 (centres undefined),inconclusive: 97.3%
8,COc1cccc(-n2c(=O)n(Cc3ccccc3)c(=O)c3[nH]cnc32)c1C,inconclusive: 106%
9,Cc1nc2ccc(NC(=O)c3cncc(Br)c3)cc2s1,inconclusive: 116%
10,Cc1cccc(-n2c(N)cc(=O)nc2SCC(=O)Nc2nnc(C)s2)c1,inactive: 101%
11,COc1ccc(/C(C)=N/Nc2cccc(C(=O)O)c2)cc1OC,inconclusive: 113%
12,CC(=O)N1N=C(c2ccc(C)cc2)OC1c1cccnc1 (centres undefined),inactive: 101%
13,COC(=O)C1=C(Nc2ccccc2NS(=O)(=O)c2ccc(C(F)(F)F)cc2Cl)CSC1,inconclusive: 86%
14,COCCCNC(=O)[C@H](CSCc1ccccc1)N1Cc2ccccc2C1=O,inconclusive: 119%
15,Cc1cc(C)cc(OC(=O)C23CCC(C)(C(=O)O2)C3(C)C)c1 (centres undefined),inactive: 90.2%
16,Cc1cccc(C)c1NC(=O)C1c2cccc[n+]2CC(=O)N1Cc1cccs1 (centres undefined),inactive: 103%
17,S=C(NC1CCCC1)NC1CCCC1,inconclusive: 94.2%
18,CCc1ccccc1NC(=O)c1ccc(CN2CCC(Cc3ccccc3)CC2)cc1,inactive: 102%
19,CCOC(=O)c1c(NCCN(C)C)c2ccccc2[nH]c1=O,inconclusive: 95.1%
20,Cc1ccc(CSc2nnc(SCC(=O)N/N=C/c3ccc(C(=O)O)cc3)s2)cc1,inconclusive: 87%
21,O=C(Cn1nnc(-c2ccc(Cl)cc2)n1)NCc1ccco1,inactive: 95.2%
22,Cc1nc2cc(NC(=O)N3CC4(C)CC3CC(C)(C)C4)ccc2n1C (centres undefined),inactive: 105%
23,C/C(=N\NC(=O)c1nnn(-c2nonc2N)c1COc1ccc(F)cc1)c1ccc(Cl)cc1,inconclusive: 110%
24,O=C(NC1CSCC1OC(=O)c1ccccc1)c1ccccc1 (centres undefined),inconclusive: 104%

row,SMILES,binding response (% of control)
1,CC(=O)c1sc2nsc(SCCN3CCOCC3)c2c1N,inconclusive: 93.6%
2,CC1CN(C2=NC(=O)/C(=C/c3ccncc3)S2)CC(C)O1 (centres undefined),inconclusive: 79.8%
3,CCOC(=O)C1CCCN(C(=O)c2cc(Nc3ccc(OC)cc3)nc3ccccc23)C1 (centres undefined),inactive: 116%
4,CN(CC(=O)Nn1cnnc1)S(=O)(=O)c1ccccc1,inactive: 104%
5,O=C(CCn1c(=O)oc2ccccc21)Nc1ccc2c(c1)OCCO2,inconclusive: 113%
6,O=C(O)c1ccc(NC(=O)c2cn(-c3ccccc3)nc2-c2ccc(Cl)cc2)cc1,inconclusive: 82.4%
7,Nc1ccc(C(=O)OCC(=O)c2cccc([N+](=O)[O-])c2)cc1,inconclusive: 82.5%
8,CCCCCNC(=O)c1cc(S(=O)(=O)N2CCCC2)ccc1F,inactive: 84%
9,Cc1nn(-c2ccccc2)nc1C(=O)NNC(=O)c1cccc2ccccc12,inconclusive: 75.7%
10,Cn1c(=O)c2c([nH]c(OCc3ccc(Cl)cc3Cl)[n+]2Cc2ccc(F)cc2)n(C)c1=O,inconclusive: 137%
11,O=C(O)CCCCCN1C(=O)/C(=C\c2ccncc2)SC1=S,inactive: 100%
12,COc1cc(O)sc1C=Nc1ccc(Cl)cc1Cl,inconclusive: 121%
13,Cc1n[nH]c(=S)n1-c1ccccc1,inconclusive: 87.5%
14,C=C1CCN([C@@H](C)C(=O)NCCCCCC)S(=O)(=O)c2ccccc21,inconclusive: 100%
15,CCc1cccc2c1NC1(CCCC1)CC2C (centres undefined),inconclusive: 85.5%
16,Cc1cccc(C)c1NC(=O)NN=C1CCCCC1,inconclusive: 102%
17,COC(=O)COc1ccc(S(=O)(=O)Nc2ccccc2C(=O)OC)cc1,inactive: 146%
18,CCC(CCC(=O)Nc1cccc([N+](=O)[O-])c1)C(=O)O (centres undefined),inconclusive: 72.2%
19,CN1Cc2c(N3CCOCC3)nc3sc(C#N)c(N)c3c2CC1(C)C,inconclusive: 306%
20,COc1cc(/C=C/C(=O)OCC(=O)NC(=O)NC(C)(C)C)ccc1O,inconclusive: 104%
21,CC1=NN(C(=O)CSCc2ccccc2)C(O)(c2ccc(Cl)cc2)C1 (centres undefined),active: 49.3%
22,COc1ccc(CN(C(=O)/C=C/c2ccco2)C2CCS(=O)(=O)C2)cc1 (centres undefined),inconclusive: 181%

# Sorted by number of heavy atoms (low to high): some entries from above
row,SMILES,binding response (% of control)
13,Cc1n[nH]c(=S)n1-c1ccccc1,inconclusive: 87.5%
15,CCc1cccc2c1NC1(CCCC1)CC2C (centres undefined),inconclusive: 85.5%
14,C=C1CCN([C@@H](C)C(=O)NCCCCCC)S(=O)(=O)c2ccccc21,inconclusive: 100%
